The whole screen tested about 300,000 compounds, of which about 5,400 (1.8%) were called active. The shares of active, inactive and inconclusive entries below differ from those in the screen. Calls follow the shape of the full dose curve; tested in HEK293 cells. Potencies beside an inconclusive call are fits to weak or partial responses and may not hold up.
Assay: qHTS for inhibitors of binding or entry into cells for Marburg Virus
Settings: Marburg virus pseudotyped entry inhibition, cell reporter; activity change, negative = inhibition: at 37.8 µM (top of the series) unless noted
% is scaled to controls: 0 for no effect and ±100 for the full control effect; potency is read from the fitted curve at half-maximal effect.

With `COc1cc2cc(-c3ccc(OC)c(OC)c3C)nc(N)c2cc1OC` as the compound, how does the Potency read?
Its Potency is inconclusive: 10 µM [inhibitor, partial curve, poor fit].

Which “activity change, negative = inhibition” value does the source give for `COC(=O)c1cn(NC(=O)/C=C/c2cccc(OC)c2OC)c(=O)c2ccccc12` here?
Its value is inactive: 4.3%.

For `CCOc1ccc(CN(C)CC(=O)Nc2cc(C)c(C)cc2[N+](=O)[O-])cc1`, which “activity change, negative = inhibition” value is on record?
Its value is inactive: -6.51% [at 46.1 µM].

For `Cc1ccc(NC(=S)/C(=C(\[O-])c2ccc(Cl)s2)[n+]2cccc(CO)c2)cc1C`, which Potency is on record?
The Potency was inconclusive: 7.08 µM [inhibitor, full curve].

For `Cc1ccc(-c2nn3c(C)nnc3s2)cc1NC(=O)c1ccc(-c2ccc(Cl)cc2Cl)o1`, which Potency is on record?
Its Potency is active: 14.6 µM.

For `Cc1cccc(N(CC(=O)NCc2ccc3c(c2)OCO3)C(=O)CCC(=O)Nc2ccccn2)c1`, which Potency is on record?
Its Potency is inconclusive: 3.16 µM [activator, single point].

With `CCN(CC)C(=O)Cn1cnc2sc(C(=O)N3CCN(Cc4ccc5c(c4)OCO5)CC3)c(C)c2c1=O` as the compound, how does the “activity change, negative = inhibition” value read?
Its value is inactive: -21% [at 46.1 µM].

With `Cc1ccc(NC(=O)CSCC(=O)Nc2ccccc2N2CCCCC2)cc1` as the compound, how does the Potency read?
Its Potency is inconclusive: 35.5 µM [inhibitor, single point].

With `CCOC(=O)CSc1nnc(-c2ccco2)n1-c1ccccc1` as the compound, how does the “activity change, negative = inhibition” value read?
The value was inactive: -3.76%.

Which “activity change, negative = inhibition” value does the source give for `CCOc1cccc(=O)c2c(C)n(Cc3ccco3)c(C)c12` here?
Its value is inactive: 3.33%.

For `Cc1cc(C)cc(NC(=O)C2CCCN2S(=O)(=O)c2cccc3nsnc23)c1` (stereo not given), which Potency is on record?
Its Potency is inconclusive: 10 µM [inhibitor, partial curve, poor fit].

For `CCN(CC)CCN(C(=O)c1ccc2c(c1)OCCO2)c1nc2cc(C)cc(C)c2s1`, which Potency is on record?
The Potency was inconclusive: 28.2 µM [inhibitor, single point].

With `CCc1cccc(CC)c1N(COC)C(=O)CCl` as the compound, how does the Potency read?
The Potency was inconclusive: 11.2 µM [inhibitor, partial curve, poor fit].

With `Cc1ccnc(NC(=O)c2sc3ccccc3c2Cl)c1` as the compound, how does the Potency read?
The Potency was active: 1.58 µM.

Which Potency does the source give for `CCCNc1c(NC(=O)c2ccc3c(c2)OCO3)c(=O)oc2ccccc12` here?
Its Potency is inconclusive: 6.31 µM [inhibitor, single point].

Which Potency does the source give for `CC1CCN(c2ccc(NC(=O)c3ccc([N+](=O)[O-])o3)cc2)CC1` here?
The Potency was inconclusive: 2.51 µM [inhibitor, partial curve].

For `COc1ccc(Nc2ccnc3ccccc23)cc1`, which Potency is on record?
Its Potency is inconclusive: 35.5 µM [inhibitor, partial curve, poor fit].

For `Cc1cccc(NS(=O)(=O)c2ccc(Oc3ccccc3)cc2)n1`, which Potency is on record?
Its Potency is inconclusive: 0.184 µM [inhibitor, full curve, poor fit].

Which Potency does the source give for `CCOC(=O)c1c(-n2c(C)cc(/C=C3\C(=O)NC(=O)N(C)C3=O)c2C)sc2c1CCCC2` here?
Its Potency is inconclusive: 14.6 µM [inhibitor, partial curve, poor fit].

Which “activity change, negative = inhibition” value does the source give for `Nc1nonc1C(=O)N/N=C/c1ccc(-c2cccc([N+](=O)[O-])c2)o1` here?
The value was inactive: -0.545%.

For `Cn1c(CSCc2ccccc2Cl)nnc1SCC(=O)Nc1nccs1`, which Potency is on record?
Its Potency is inconclusive: 6.31 µM [inhibitor, single point].

With `Cc1[nH]c(C)c(S(=O)(=O)N2CCC(C)CC2)c1C(=O)N1CCCC1` as the compound, how does the “activity change, negative = inhibition” value read?
Its value is inactive: 8.85% [at 46.1 µM].

Which Potency does the source give for `CCC(C)(C)NC(=O)C(c1ccc(OC)cc1)N(C(=O)CCC(=O)Nc1cc(C)on1)c1ccc2c(c1)OCCO2` (stereo not given) here?
The Potency was inconclusive: 11.2 µM [inhibitor, partial curve].

For `COc1ccc(NS(=O)(=O)c2cc(NC(=O)Cc3cccs3)ccc2C)cc1`, which Potency is on record?
The Potency was inconclusive: 16.4 µM [inhibitor, single point].

Which “activity change, negative = inhibition” value does the source give for `CCOC(=O)N1CCN(c2c(NCC3CCN(Cc4cccc(C)c4)CC3)c(=O)c2=O)CC1` here?
Its value is inactive: 5.93%.

Which “activity change, negative = inhibition” value does the source give for `Cc1ccc(NC(=O)c2ccc(NCCc3ccccc3)c([N+](=O)[O-])c2)cc1F` here?
Its value is inactive: -1.57%.

Which “activity change, negative = inhibition” value does the source give for `CC(C)(C)OC(=O)N1CCC(c2nnc(SCc3ccccc3)o2)CC1` here?
The value was inactive: 13.8% [at 46.1 µM].

With `CC(=O)OC[C@H]1O[C@H](C/C=N/OCC[C@@H]2C=C[C@H](OC(C)=O)[C@@H](COC(C)=O)O2)C=C[C@@H]1OC(C)=O` as the compound, how does the “activity change, negative = inhibition” value read?
The value was inactive: 10.3% [at 14.2 µM].

With `NS(=O)(=O)c1ccc(N/N=C/c2cn(-c3ccccc3)nc2-c2cccs2)cc1` as the compound, how does the Potency read?
The Potency was inconclusive: 11.2 µM [inhibitor, partial curve, poor fit].

Which Potency does the source give for `CCCSc1nsc(NC(=O)CCC)n1` here?
Its Potency is inconclusive: 35.5 µM [inhibitor, single point].

With `O=C(CSc1ccc(-c2ccccn2)nn1)NC1CCCCC1` as the compound, how does the Potency read?
Its Potency is inconclusive: 4.47 µM [inhibitor, partial curve, poor fit].

For `O=C(Nc1cc(Cl)ncn1)c1ccccc1`, which “activity change, negative = inhibition” value is on record?
The value was inactive: -13.2% [at 46.1 µM].

Which Potency does the source give for `C[C@@H]1C=C[C@](Cc2ccccc2)(C(=O)NCCc2c[nH]c3ccccc23)N1C(=O)c1ccccc1` here?
The Potency was inconclusive: 9.2 µM [inhibitor, single point].

With `N#Cc1ccc(OCC(=O)Nc2ccccc2NS(=O)(=O)c2cccs2)cc1` as the compound, how does the “activity change, negative = inhibition” value read?
Its value is inactive: -4.37%.

Which “activity change, negative = inhibition” value does the source give for `COc1ccc(S(=O)(=O)NNC(=O)c2ccc(-n3c(C)ccc3C)cc2)cc1` here?
Its value is inactive: -10% [at 46.1 µM].

For `Cc1cc(NC(=O)C(C)C)ncc1NC(=O)c1cccc(F)c1`, which “activity change, negative = inhibition” value is on record?
The value was inactive: -2.82%.

With `COc1ccc(S(=O)(=O)N2Cc3ccccc3CC2C(=O)Nc2cc(Cl)ccc2Cl)cc1` (stereo not given) as the compound, how does the Potency read?
Its Potency is inconclusive: 35.5 µM [inhibitor, single point].

For `Fc1cccc(/C=N\N=C/c2cccc(F)c2)c1`, which Potency is on record?
The Potency was inconclusive: 0.562 µM [activator, partial curve, poor fit].

With `CCOCN(C(=O)Cn1c(COC)nc2ccccc21)c1c(C)cccc1CC` as the compound, how does the Potency read?
The Potency was inconclusive: 6.31 µM [activator, single point].

With `CC(=O)Nc1ccc(S(=O)(=O)N2CCc3nc(-c4ccccc4)c4c(c3C2)CO[C@@H](C)C4)cc1` as the compound, how does the Potency read?
Its Potency is inconclusive: 0.299 µM [activator, full curve, poor fit].

For `Cc1cc(/C=C(/C#N)c2nc3ccccc3[nH]2)c(C)n1-c1cccc([N+](=O)[O-])c1`, which Potency is on record?
Its Potency is inconclusive: 35.5 µM [inhibitor, single point].

With `O=C(c1ccc(COc2ccc(Br)cc2)o1)N1N=C(C(F)F)CC1(O)C(F)F` (stereo not given) as the compound, how does the Potency read?
Its Potency is inconclusive: 2 µM [activator, partial curve].

With `CCN(CC)S(=O)(=O)c1ccc(-n2c(=O)c(C(C)C)c(C)n2C)cc1` as the compound, how does the Potency read?
Its Potency is inconclusive: 35.5 µM [inhibitor, single point].

For `O=C(CCC(=O)N1CCN(c2ccc(F)cc2)CC1)c1ccccc1`, which “activity change, negative = inhibition” value is on record?
The value was inactive: 14.4% [at 46.1 µM].

Which Potency does the source give for `COc1ccc(C(=O)c2c(NC(C)=O)sc3c2CCN(C(=O)OC(C)(C)C)C3)cc1` here?
Its Potency is inconclusive: 11.2 µM [inhibitor, partial curve, poor fit].

With `COc1cccc(CNC(C)(C)CO)c1OCc1ccc(Cl)cc1` as the compound, how does the Potency read?
The Potency was inconclusive: 25.1 µM [inhibitor, single point].

Which Potency does the source give for `CN(C)c1ccc(CN2CC=C(c3ccc(F)cc3)CC2)cc1` here?
The Potency was inconclusive: 23.1 µM [inhibitor, single point].

Which Potency does the source give for `O=c1[nH]c2ccc(Cl)cc2c(-c2ccccc2)c1SC(=S)N1CCOCC1` here?
The Potency was inconclusive: 35.5 µM [inhibitor, single point].

For `Cc1ccccc1NC(=O)COC(=O)c1n[nH]c(=O)c2ccccc12`, which “activity change, negative = inhibition” value is on record?
The value was inactive: -0.932%.

For `COc1ccc(-n2c(=O)cc(N3CCN(c4ccccc4)CC3)[nH]c2=O)cc1`, which Potency is on record?
The Potency was inconclusive: 0.1 µM [inhibitor, full curve, poor fit].

For `c1ccc(-c2ccc(-c3ccccn3)s2)nc1`, which Potency is on record?
The Potency was inconclusive: 11.2 µM [activator, partial curve, poor fit].

With `COC(=O)CCCn1c(C)cc(C(=O)CCl)c1C` as the compound, how does the Potency read?
The Potency was inconclusive: 35.5 µM [inhibitor, single point].

Which Potency does the source give for `O=C(N/N=C/c1cccc(O)c1)c1ccc(COc2ccccc2Br)cc1` here?
The Potency was inconclusive: 1.12 µM [activator, full curve, poor fit].

Which Potency does the source give for `O=C(/C=C\Nc1ccccn1)c1ccc(Cl)cc1` here?
Its Potency is active: 6.51 µM.

Which Potency does the source give for `CCn1nccc1C(=O)NC1=C(C#N)CCC1` here?
Its Potency is inconclusive: 0.0058 µM [inhibitor, full curve, poor fit].

With `COCCCNC(=O)c1cccn2c(=O)c3cc4ccccc4cc3nc12` as the compound, how does the Potency read?
Its Potency is inconclusive: 20.6 µM [inhibitor, single point].

Which Potency does the source give for `Cc1cc(C)n(-c2nc3ccccc3c(=O)n2OCC(C)C)n1` here?
Its Potency is inconclusive: 0.126 µM [inhibitor, full curve, poor fit].

With `COc1ccccc1NC(=O)Nc1nc(CC(=O)N2CCN(c3ccccc3OC)CC2)cs1` as the compound, how does the Potency read?
The Potency was inconclusive: 2.51 µM [inhibitor, partial curve, poor fit].

For `CCn1c(CNC(=O)c2ccc(OC)cc2)nnc1SCC(=O)Nc1cc(C)ccc1C`, which Potency is on record?
Its Potency is inconclusive: 3.16 µM [inhibitor, full curve, poor fit].

With `CCCOc1ccc(C(=O)NNC(=S)NC(=O)c2ccco2)cc1` as the compound, how does the Potency read?
The Potency was inconclusive: 35.5 µM [inhibitor, single point].

With `CCOC(=O)c1c(NC(=O)Cn2nc(C(F)F)cc2C(F)F)sc(C)c1C` as the compound, how does the Potency read?
The Potency was inconclusive: 35.5 µM [inhibitor, single point].

Which Potency does the source give for `Cc1ccc(NC(=O)C2CCCN(c3ncnc4c3nc3n4CCCCC3)C2)nc1` (stereo not given) here?
Its Potency is inconclusive: 35.5 µM [inhibitor, single point].

For `COc1ccccc1/C=N/NC(=O)c1nnn(-c2nonc2N)c1-c1ccccc1`, which Potency is on record?
Its Potency is inconclusive: 31.6 µM [activator, partial curve, poor fit].

For `Nc1ccc2nc3c(c(Cl)c2c1)CCCC3`, which Potency is on record?
Its Potency is inconclusive: 10 µM [inhibitor, partial curve, poor fit].

Which Potency does the source give for `O=C(NCC(c1cccs1)N1CCOCC1)c1ccc(Br)o1` (stereo not given) here?
The Potency was inconclusive: 35.5 µM [inhibitor, single point].
